Results: paper PMC11229371, “The activity of CobB1 protein deacetylase contributes to nucleoid compaction in Streptomyces venezuelae spores by increasing HupS affinity for DNA” (Nucleic Acids Research, 2024)
For at least one entry, the source does not settle the construct or the ends of the probe.

Legend:
[1] = target: T1, His-HupS (nonacetylated, -AcP) (Streptomyces venezuelae) (UniProt F2R5C9); experiment: BLI; conditions: 1 mM Mg2+; BLI: 100 mM Tris-HCl pH 8.0, 200 mM NaCl, 1 mM MgCl2, 0.005% Tween-20, 0.1 mg/ml BSA, 30 C; recombinant protein; residues 1-234; protein details: N-terminal His (pET-28a); label: 5' biotin, immobilized on streptavidin; single-stranded DNA
T1 sequence: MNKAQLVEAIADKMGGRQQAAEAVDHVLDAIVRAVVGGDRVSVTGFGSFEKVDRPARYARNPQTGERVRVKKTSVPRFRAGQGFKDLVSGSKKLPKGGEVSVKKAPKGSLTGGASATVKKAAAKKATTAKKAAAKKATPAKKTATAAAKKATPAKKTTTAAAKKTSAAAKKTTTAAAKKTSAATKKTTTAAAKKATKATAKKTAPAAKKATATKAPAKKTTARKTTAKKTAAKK

[2] = target: T2, His-HupS acetylated in vitro (+AcP) (Streptomyces venezuelae) (UniProt F2R5C9); experiment: BLI; conditions: 1 mM Mg2+, lysine-acetylated; BLI: 100 mM Tris-HCl pH 8.0, 200 mM NaCl, 1 mM MgCl2, 0.005% Tween-20, 0.1 mg/ml BSA, 30 C; recombinant protein; residues 1-234; protein details: N-terminal His (pET-28a); label: 5' biotin, immobilized on streptavidin; single-stranded DNA
T2 sequence: T1 sequence

For “CTCACGCATGCCGGAGTGTCGCGGCAGTTCGGCATCAGCGGCTGTGCATCGTGTTTCACGTGAAACGTCGCTCACTGCTGCACGGCATCATCAGCCGCGGCCGCGCCGCGGCCGACC [Btn-parS-oligo]”, the Kd [1] was 10.6 nM and the Kd [2] was 17.6 nM.
